{
  "source": "patent US20180371402A1",
  "about": "“Medium composition for producing alpha-glucosidase inhibitors fermented from Paenibacillus” (priority 2017, published 2018)",
  "biological_target": "Rat α-glucosidase",
  "experiment": "Inhibitory activity to rat alpha-glucosidase, comparison with Acarbose",
  "format": "biochemical",
  "conditions": "n 3",
  "note": "For at least one compound, name, drawing or mass did not settle the structure.",
  "data": [
    {"smiles": "C[C@H]1O[C@H](O[C@H]2[C@H](O)[C@@H](O)[C@@H](O[C@H]3[C@H](O)[C@@H](O)C(O)O[C@@H]3CO)O[C@@H]2CO)[C@H](O)[C@@H](O)[C@@H]1N[C@H]1C=C(CO)[C@@H](O)[C@H](O)[C@H]1O", "note": "(some centres unmarked) [Acarbose]", "values": [
      {"measurement": "IC50", "result": "78 ± 3.2", "unit": "µg/mL"},
      {"measurement": "Maximum Inhibitory Activity", "result": "91 ± 3.1", "unit": "%"}
    ]}
  ]
}
